The values below come from a protein production outcome set (Wang et al. 2014).

A short description of this data set: label from the status in PepcDB records.
Consider “MNGEYRGRGFGRGRFQSWKRGRGGGNFSGKWREREHRPDLSKTTGKRTSEQTPQFLLSTKTPQSMQSTLDRFIPYKGWKLYFSEVYSDSSPLIEKIQAFEKFFTRHIDLYDKDEIERKGSILVDFKELTEGGEVTNLIPDIATELRDAPEKTLACMGLAIHQVLTKDLERHAAELQAQEGLSNDGETMVNVPHIHARVYNYEPLTQLKNVRANYYGKYIALRGTVVRVSNIKPLCTKMAFLCAACGEIQSFPLPDGKYSLPTKCPVPVCRGRSFTALRSSPLTVTMDWQSIKIQELMSDDQREAGRIPRTIECELVHDLVDSCVPGDTVTITGIVKVSNAEEGSRNKNDKCMFLLYIEANSISNSKGQKTKSSEDGCKHGMLMEFSLKDLYAIQEIQAEENLFKLIVKWSLALSPRLEYSGAISAHCNLHLPSSNSSPTSACRVAGTTGMRHQTQLLLLVKAGLALALFGGSQKYADDKNRIPIRGDPHILVVGDPGLGKSQMLQAACNVAPRGVYVCGNTTTTSGLTVTLSKDSSSGDFALEAGALVLGDQGICGIDEFDKMGNQHQALLEAMEQQSISLAKAGVVCSLPARTSIIAAANPVGGHYNKAKTVSENLKMGSALLSRFDLAFILLDTPNEHHDHLLSEHVIAIRAGKQRTISSATVARMNSQDSNTSVLEVVSEKPLSERLKVVPGETIDPIPHQLLRKYIGYARQYVYPRLSTEAARVLQDFYLELRKQSQRLNSSPITTRQLESLIRLTEARARLELREEATKEDAEDIVEIMKYSMLGTYSDEFGNLDFERSQHGSGMSNRSTAKRFISALNNVAERTYNNIFQFHQLRQIAKELNIQVADFENFIGSLNDQGYLLKKGPKVYQLQTM”, for which the protein production entry is listed as “failed”.
For “MNPYVPDKLITAGIKHMKFWRKAGDVCIWRDIFLVKTVKAHDGPVFSMHALEKGFVTGGKDGIVALWDDSFERCLKTYAIKRAALAPGSKGLLLEDNPSIRAISLGHGHILVGTKNGEILEVDKSGPITLLVQGHMEGEVWGLATHPYLPICATVSDDKTLRIWDLSPSHCMLAVRKLKKGGRCCCFSPDGKALAVGLNDGSFLMANADTLEDLVSFHHRKDMISDIRFSPGSGKYLAVASHDSFIDIYNVMSSKRVGICKGATSYITHIDWDIRGKLLQVNTGAKEQLFFEAPRGKKQTIPSVEVEKIAWASWTSVLGLCCEGIWPVIGEVTDVTASCLTSDKMVLATGDDLGFVKLFRYPTKGKFGKFKRYVAHSTHVTNVRWTYDDSMLVTLGGTDMSLMVWTNEMEGYREKRPCDSEESDIDSEEDGGYDSDVTRENEISYTIRALSTNIRPMLGIKPHLQQKEPSIDERPPVSRAPPQPEKLQTNNVGKKKRPIEDLVLELIFGYRGRDCRNNVHYLNDGDDIIYHTASVGILHNVATGSQSFYQEHNDDILCLTVNQHPKFINIVATGQVGDSADMSATAPSIHIWDAMNKQTLSILRCYHSKGVCSVSFSATGKLLLSVGLDPEHTITIWRWQEGAKIASRAGHNQRIFVAEFRPDSDTQFVSVGVKHVKFWTLAGRALLSKKGLLSTLEDARMQTMLAIAFGANNLTFTGTISGDVCVWKDHILCRIVARAHNGPVFAMYTTLRDGLIVTGGKERPSKEGGAVKLWDQELRRCRAFRLETGQATDCVRSVCRGKVFTREDFESFHHKEMINV” the value was “failed”; for “MPDMSQLKELPFSTLQFYATAPYPSYLPGRQARSQVAAPGHLINTGTYSQLVEQGFRRSGLFTYRPHCDNCHACVPVRVDAARFEPNRTQRRAWRSHQALRAFVAELAWSPEHYDLYTRYQQGRHPGGGMDEDSRTQYAQFLLTTRVNTRLVKFRTPQGQLAMISIIDVLDDGLSSVYTFYDPDMAGSLGTYSILWQIEQCRTLDLPWLYLGYWIADSRKMAYKANFRPLQMHVDGAWRETPPLEHHHHHH”, “failed”.
To “MQNNPSPQLPCKGILKTSRSFDKSGASFRKSAKFDELNVMQTFHPADKDYGHMKIDEPKTPYNYTEGFDENRDELDTELLVEKLRIAANTQPSTESIEDDGSSGDDQPLSEEERQRRREFERRRKAHYREFEAVKLARKLIQEEDDDDDDEDKGADSRPSGSSQGASSSGRFASSSTKRSSSQADSTTSPSTSAGQNMDLEPSNN” belongs “failed”; to “MSLRNDATNAAGAVGAAMRDHILLPAQEMAKLGKSAQPVLTHAEGIYVHTEDGRRLIDGPAGMWCAQVGYGRREIVDAMAHQAMVLPYASPWYMATSPAARLAEKIATLTPGDLNRIFFTTGGSTAVDSALRFSEFYNNVLGRPQKKRIIVRYDGYHGSTALTAACTGRTGNWPNFDIAQDRISFLSSPNPRHAGNRSQEAFLDDLVQEFEDRIESLGPDTIAAFLAEPILASGGVIIPPAGYHARFKAICEKHDILYISDEVVTGFGRCGEWFASEKVFGVVPDIITFAKGVTSGYVPLGGLAISEAVLARISGENAKGSWFTNGYTYSNQPVACAAALANIELMEREGIVDQAREMADYFAAALASLRDLPGVAETRSVGLVGCVQCLLDPTRADGTAEDKAFTLKIDERCFELGLIVRPLGDLCVISPPLIISRAQIDEMVAIMRQAITEVSAAHGLTAKEPAAVEGHHHHHH”, “not failed”; to “MTEKITLADALSNVEVLDELSLPDEQPCIEAQPCSIIYKANFDTNFEDRNGFVTGIAKYIEEATTHANLNVLLDEGQKHAVMLYTWRCCSRAIPQPKSNEQPNRVEIYEKTVEVLAPEVNKLLNFMYFQRKAIEAFSGEVKRLCHAEKRKDFVSEAYLLTLGKFINMFAVLDELKNMKSSVKNDYSTYRRAAQFLKVMSDSHTLQESQNLSMFLATQNKIRDTVKDTLEKIVGYEDLLSDVVNICVHMFETKMYLTPEEKHMLVKVMGFGLFLMDSDACNINKLDQKKKIRLDRIDRIFKNLEVVPLFGDMQIAPFNYIKRSKHFDSSKWPLSSSNAISPQADLMVHLPQIREDHVKYISELARYTNEVTTTVKENPSDAENRITADLALRGLQLLSEWTSVVTELYSWKLLHPTDHHQNKECPVEAEEYERATRYNYTSEEKFALIEVIAMIKGLQVLMARIETVLCEAIRRNIYSELQDFVQLSLREPLRKAVKNKKDLIRSIIMSVRETSADWQKGYEPTDDPVAKGKKDPDGGFRIQVPRLNVGPSSTQLYMVRTMLESLIADKSGGKRTLRKDIDGNCLLQIDTFHKTSFYWSYLLNFSDTLQKCCDLSQLWYREFYLEMTMGRKVNKCLVRHQHNEECKDLITMEKRIQFPIEMSMPWILTDHILQTKEPSMMEFVLYPLDLYNDSAYYALTVFRKQFLYDEVEAEVNLCFDQFVYKLSEQIFAHYKQLAGSIFLDKRFRLECEVLGFNFQSYPRNNRYETLLKQRHVQLLGRSIDLNKLITQRINANMHKSIELAISRFEGNDITGIVELEGLLEANRICHKLLSKYLALDNFDGMVKEANHNVLAPYGRITLHVFVELNYDFLVNYCYNAATNRFIRTKVNLSSSQAIQREKPPQMSHYYLWGSKQLNAAYSTQYGQYTGFVGSPHFHAMCRLLGYQGIAVVMDIILKDIVKPLIQGSLLQFTKTLMIAMPKSCKLPRCEYGSPGVLSYYQAHLTDIVQYPDAKTELFQSFREFGNSIIFCLLIEQALSQEEVCDLLHAALFQNIFPRPFCKENEKPEAKQKRLEAQFANLQIVSNVEKIGTAKQAMIAREGDLLTRERLCCGLSIFEVILNRVKSYLDDPVWCGPPPANGIIHVDECSEFHRLWSALQFVYCIPVRGTEYTIEELFGEGLNWAGCVMIVLLGQQRRFEALDFCYHILRVQRVDGKDEDVKGIQLKRMVDRIRRFQVLNSQIFSILNKYLKGGDGEGSNVEHVRCFPPPQHPSVISSSSHYQDPQKLRQSINN”, “failed”.
For “MTSASVKTVCPYCGVGCGMVLHVEGGEVVKVSGDAEHPANFGRLCTKGSSAHVALRNAGRLERAFVRDARERDPAPVPIADAIAETARRLRATLDAHGPDALAFYVSGQMSLEAQYLVNKLAKGYVRTPHIESNSRLCMASAGSGYKLSLGADGPPGSYQDFDCADLFFVIGSNMADCHPILFLRMMDRVKAGAKLVVVDPRRTATADKADLFLKIRPGTDLALLNGLLHLLHANGQTDADFIAAHTEGWAAMPDFLGDYTPEKVAAITGLTEADIRLAAQWIGDAREWTSCWTMGLNQSTHGTWNTNAICNLHLATGKICRPGSGPFSLTGQPNAMGGREMGYMGPGLPGQRSALDGDDRRFAEDVWGLPAGTIRADAGGGTVDLFARMAAGGVKACWIICTNPAATVANRKNVIAGLQAADVVIVQDAFLDTETNRYADILLPGALWAEAEGVMINSERNLTLMRRAVEPPGDAWPDWRIVAAVAREMGYGDAFDYGSAAEVFDEIRRFANPKTGYDLRGASHAALRDAPLQWPCPPHDGRDRHPIRYLNDGVSQARATLADGRVPPLAFPTPTGKARFFARPHVAPAEMPTPEFPIVLNTGRLQHQWHTMTKTGKVAMLNKLNPRPFVEIHPDDAAALSIAAKDAVEIRSARGRAVLPAVVTDRVRPGACFAPMHWNDVYGDDLCVNAVTNDAVDPVSLQPELKFCAVALARVDAMGNADVDADDETDDRVRASRAALHETGSHEADAHEADAHAAPDAHGASRAEADASEEHHMSDIDTFAALLGIPAAASAPQLTDAQRVYAAGFVSGLRSAEGRRAAGVPMLPASAPFDANTRLWVDGLLAGLFSRAPGGAAARVDARAAAQPAAIAAADASSAPSGVRIVRTRPKVVLLWASQTGNVESLTERYATQLMDSGFEIRVACMADYPAASLAKAQYALLMTSTFGDGDAPDNGQEFWAALNAADAARADGLRYAVLAFGDRNYDQFCGHGRRLDARLAALGATRLAERVDCDAEFQPAADAWLDRAIARIKEEDAALHAVPADGMIPSGAIPTKTRPAASRLVANLRLNAPGAAKDTRYVSLSTDGAAIEYEAGDALGVWPTNCPELVDELLTLTRLTPDAPVTVAGVGELRLADALAKHFDITRPHPDALAFVAARSRSGDALARLLGDDRKTDLKHWLWGQQLADVLHEFPLELSAVELVGMLKRLQPRLYSIASSPNAHRGEIHLTVSAVRYGNGRRQRKGVASTFLADRAADAPVPVFVQKSAHFRPPASGDAPIVMVGPGTGVAPFRGFLHERRARGAKGRNWLFFGEQHADTDFYYRDELAQMRADGFLTRLDVAFSRDQAEKVYVQDRMLEQGAALWAWLEEGAHFYVCGDASRMAKDVDAALKTIVARHGGMTDEQAADYVARLAKDKRYARDVY” the value was “failed”.
For the sequence “MVIGTSAKHGWEVGLSRFTIKILWLNENVAIAVDQVVGKATSPLTAYYFWPRHDAWEQLKTELESKSWITEAERVELLNQATEVINYWQEEGKGKPLAQAQARFPELVFTGSNLEHHHHHH”, the protein production entry is “not failed”.
As to “SAKFKIRPATASDCSDILRLIKELAKYEYMEDQVVLTEKDLLEDGFGEHPFYHCLVAEVPKEHWTPEGHSIVGFAMYYFTYDPWIGKLLYLEDFFVMSDYRGFGIGSEILKNLSQVAMKCRCSSMHFLVAEWNEPSINFYKRRGASDLSSEEGWRLFKIDKEYLLKMAAEE”, the protein production entry is “failed”.
